Experimental data taken from article PMC3517537.
No constants are given. Whether binding was seen depends on the method and setting. Binding seen in cells or lysates may run through a third protein. Binding can be weak; no strength is given.

Molecular target: taxol-stabilized microtubules (Cytoskeleton Inc)
Test: co-sedimentation; 10 µl 35S-labeled in vitro translated protein with 50 µg Taxol-stabilized microtubules or Taxol-containing buffer, 100 µl, 30 min 37°C; 30 min at 100,000 g; supernatant and pellet by autoradiography; only the target purified

- binding: binds
B1: in vitro translated 35S-labeled GTSE1 WT (protein, UniProt Q9NYZ3 1-739)
chain: MEGGGGRDEPSACRAGDVNMDDPKKEDILLLADEKFDFDLSLSSSSANEDDEVFFGPFGHKERCIAASLELNNPVPEQPPLPTSESPFAWSPLAGEKFVEVYKEAHLLALHIESSSRNQAAQAAKPEDPRSQGVERFIQESKLKINLFEKEKEMKKSPTSLKRETYYLSDSPLLGPPVGEPRLLASSPALPSSGAQARLTRAPGPPHSAHALPRESCTAHAASQAATQRKPGTKLLLPRAASVRGRSIPGAAEKPKKEIPASPSRTKIPAEKESHRDVLPDKPAPGAVNVPAAGSHLGQGKRAIPVPNKLGLKKTLLKAPGSTSNLARKSSSGPVWSGASSACTSPAVGKAKSSEFASIPANSSRPLSNISKSGRMGPAMLRPALPAGPVGASSWQAKRVDVSELAAEQLTAPPSASPTQPQTPEGGGQWLNSSCAWSESSQLNKTRSIRRRDSCLNSKTKVMPTPTNQFKIPKFSIGDSPDSSTPKLSRAQRPQSCTSVGRVTVHSTPVRRSSGPAPQSLLSAWRVSALPTPASRRCSGLPPMTPKTMPRAVGSPLCVPARRRSSEPRKNSAMRTEPTRESNRKTDSRLVDVSPDRGSPPSRVPQALNFSPEESDSTFSKSTATEVAREEAKPGGDAAPSEALLVDIKLEPLAVTPDAASQPLIDLPLIDFCDTPEAHVAVGSESRPLIDLMTNTPDMNKNVAKPSPVVGQLIDLSSPLIQLSPEADKENVDSPLLKF
modifications: 35S-labeled
